Data: patent publication US11065203B2, “Liposomal compositions and uses of same” (Technion Research & Development Foundation Limited, priority 2009, dated 2021)

Experiment: Proteomics analysis (trypsin digest, LC-MS/MS) of hMSC ghosts and derived CDLs, conditioned or unconditioned by PC3 medium
Parameters: species or system human
Settings: LC-MS/MS peak area per protein; for Ratio of expression Cond. CDLs/Cond. Ghosts: CDLs derived from conditioned hMSCs versus conditioned ghosts; for Ratio of expression Cond Ghosts/Ghosts: hMSC ghosts conditioned by PC3 medium versus unconditioned ghosts

B1: Q9Y3B3 (protein, UniProt Q9Y3B3 1-224, looked up)
chain: MPRPGSAQRWAAVAGRWGCRLLALLLLVPGPGGASEITFELPDNAKQCFYEDIAQGTKCTLEFQVITGGHYDVDCRLEDPDGKVLYKEMKKQYDSFTFTASKNGTYKFCFSNEFSTFTHKTVYFDFQVGEDPPLFPSENRVSALTQMESACVSIHEALKSVIDYQTHFRLREAQGRSRAEDLNTRVAYWSVGEALILLVVSIGQVFLLKSFFSDKRTTTTRVGS
modifications: full-length
In the case of B1, the “Ratio of expression Cond. CDLs/Cond. Ghosts” value is reported as 6% and the “Ratio of expression Cond Ghosts/Ghosts” value is reported as 100%.

B2: P04216 (protein, UniProt P04216 1-161, looked up)
chain: MNLAISIALLLTVLQVSRGQKVTSLTACLVDQSLRLDCRHENTSSSPIQYEFSLTRETKKHVLFGTVGVPEHTYRSRTNFTSKYNMKVLYLSAFTSKDEGTYTCALHHSGHSPPISSQNVTVLRDKLVKCEGISLLAQNTSWLLLLLLSLSLLQATDFMSL
modifications: full-length
For B2, the “Ratio of expression Cond. CDLs/Cond. Ghosts” value was 7% and the “Ratio of expression Cond Ghosts/Ghosts” value was 100%.

B3: P62834 (protein, UniProt P62834 1-184, looked up)
chain: MREYKLVVLGSGGVGKSALTVQFVQGIFVEKYDPTIEDSYRKQVEVDCQQCMLEILDTAGTEQFTAMRDLYMKNGQGFALVYSITAQSTFNDLQDLREQILRVKDTEDVPMILVGNKCDLEDERVVGKEQGQNLARQWCNCAFLESSAKSKINVNEIFYDLVRQINRKTPVEKKKPKKKSCLLL
modifications: full-length
In the case of B3, the “Ratio of expression Cond. CDLs/Cond. Ghosts” value is reported as 6% and the “Ratio of expression Cond Ghosts/Ghosts” value is reported as 100%.

B4: P07099 (protein, UniProt P07099 1-455, looked up)
chain: MWLEILLTSVLGFAIYWFISRDKEETLPLEDGWWGPGTRSAAREDDSIRPFKVETSDEEIHDLHQRIDKFRFTPPLEDSCFHYGFNSNYLKKVISYWRNEFDWKKQVEILNRYPHFKTKIEGLDIHFIHVKPPQLPAGHTPKPLLMVHGWPGSFYEFYKIIPLLTDPKNHGLSDEHVFEVICPSIPGYGFSEASSKKGFNSVATARIFYKLMLRLGFQEFYIQGGDWGSLICTNMAQLVPSHVKGLHLNMALVLSNFSTLTLLLGQRFGRFLGLTERDVELLYPVKEKVFYSLMRESGYMHIQCTKPDTVGSALNDSPVGLAAYILEKFSTWTNTEFRYLEDGGLERKFSLDDLLTNVMLYWTTGTIISSQRFYKENLGQGWMTQKHERMKVYVPTGFSAFPFELLHTPEKWVRFKYPKLISYSYMVRGGHFAAFEEPELLAQDIRKFLSVLERQ
modifications: full-length
For B4, the “Ratio of expression Cond. CDLs/Cond. Ghosts” value was 7% and the “Ratio of expression Cond Ghosts/Ghosts” value was 100%.

B5: P35221 (protein, UniProt P35221 1-906, looked up)
chain: MTAVHAGNINFKWDPKSLEIRTLAVERLLEPLVTQVTTLVNTNSKGPSNKKRGRSKKAHVLAASVEQATENFLEKGDKIAKESQFLKEELVAAVEDVRKQGDLMKAAAGEFADDPCSSVKRGNMVRAARALLSAVTRLLILADMADVYKLLVQLKVVEDGILKLRNAGNEQDLGIQYKALKPEVDKLNIMAAKRQQELKDVGHRDQMAAARGILQKNVPILYTASQACLQHPDVAAYKANRDLIYKQLQQAVTGISNAAQATASDDASQHQGGGGGELAYALNNFDKQIIVDPLSFSEERFRPSLEERLESIISGAALMADSSCTRDDRRERIVAECNAVRQALQDLLSEYMGNAGRKERSDALNSAIDKMTKKTRDLRRQLRKAVMDHVSDSFLETNVPLLVLIEAAKNGNEKEVKEYAQVFREHANKLIEVANLACSISNNEEGVKLVRMSASQLEALCPQVINAALALAAKPQSKLAQENMDLFKEQWEKQVRVLTDAVDDITSIDDFLAVSENHILEDVNKCVIALQEKDVDGLDRTAGAIRGRAARVIHVVTSEMDNYEPGVYTEKVLEATKLLSNTVMPRFTEQVEAAVEALSSDPAQPMDENEFIDASRLVYDGIRDIRKAVLMIRTPEELDDSDFETEDFDVRSRTSVQTEDDQLIAGQSARAIMAQLPQEQKAKIAEQVASFQEEKSKLDAEVSKWDDSGNDIIVLAKQMCMIMMEMTDFTRGKGPLKNTSDVISAAKKIAEAGSRMDKLGRTIADHCPDSACKQDLLAYLQRIALYCHQLNICSKVKAEVQNLGGELVVSGVDSAMSLIQAAKNLMNAVVQTVKASYVASTKYQKSQGMASLNLPAVSWKMKAPEKKPLVKREKQDETQTKIKRASQKKHVNPVQALSEFKAMDSI
modifications: full-length
For B5, the “Ratio of expression Cond. CDLs/Cond. Ghosts” value was 7% and the “Ratio of expression Cond Ghosts/Ghosts” value was 100%.

B6: P54920 (protein, UniProt P54920 1-295, looked up)
chain: MDNSGKEAEAMALLAEAERKVKNSQSFFSGLFGGSSKIEEACEIYARAANMFKMAKNWSAAGNAFCQAAQLHLQLQSKHDAATCFVDAGNAFKKADPQEAINCLMRAIEIYTDMGRFTIAAKHHISIAEIYETELVDIEKAIAHYEQSADYYKGEESNSSANKCLLKVAGYAALLEQYQKAIDIYEQVGTNAMDSPLLKYSAKDYFFKAALCHFCIDMLNAKLAVQKYEELFPAFSDSRECKLMKKLLEAHEEQNVDSYTESVKEYDSISRLDQWLTTMLLRIKKTIQGDEEDLR
modifications: full-length
For B6, the “Ratio of expression Cond. CDLs/Cond. Ghosts” value was 6% and the “Ratio of expression Cond Ghosts/Ghosts” value was 100%.

B7: Q15293 (protein, UniProt Q15293 1-331, looked up)
chain: MARGGRGRRLGLALGLLLALVLAPRVLRAKPTVRKERVVRPDSELGERPPEDNQSFQYDHEAFLGKEDSKTFDQLTPDESKERLGKIVDRIDNDGDGFVTTEELKTWIKRVQKRYIFDNVAKVWKDYDRDKDDKISWEEYKQATYGYYLGNPAEFHDSSDHHTFKKMLPRDERRFKAADLNGDLTATREEFTAFLHPEEFEHMKEIVVLETLEDIDKNGDGFVDQDEYIADMFSHEENGPEPDWVLSEREQFNEFRDLNKDGKLDKDEIRHWILPQDYDHAQAEARHLVYESDKNKDEKLTKEEILENWNMFVGSQATNYGEDLTKNHDEL
modifications: full-length
For B7, the “Ratio of expression Cond. CDLs/Cond. Ghosts” value was 6% and the “Ratio of expression Cond Ghosts/Ghosts” value was 100%.

B8: Q9UBG0 (protein, UniProt Q9UBG0 1-1479, looked up)
chain: MGPGRPAPAPWPRHLLRCVLLLGCLHLGRPGAPGDAALPEPNVFLIFSHGLQGCLEAQGGQVRVTPACNTSLPAQRWKWVSRNRLFNLGTMQCLGTGWPGTNTTASLGMYECDREALNLRWHCRTLGDQLSLLLGARTSNISKPGTLERGDQTRSGQWRIYGSEEDLCALPYHEVYTIQGNSHGKPCTIPFKYDNQWFHGCTSTGREDGHLWCATTQDYGKDERWGFCPIKSNDCETFWDKDQLTDSCYQFNFQSTLSWREAWASCEQQGADLLSITEIHEQTYINGLLTGYSSTLWIGLNDLDTSGGWQWSDNSPLKYLNWESDQPDNPSEENCGVIRTESSGGWQNRDCSIALPYVCKKKPNATAEPTPPDRWANVKVECEPSWQPFQGHCYRLQAEKRSWQESKKACLRGGGDLVSIHSMAELEFITKQIKQEVEELWIGLNDLKLQMNFEWSDGSLVSFTHWHPFEPNNFRDSLEDCVTIWGPEGRWNDSPCNQSLPSICKKAGQLSQGAAEEDHGCRKGWTWHSPSCYWLGEDQVTYSEARRLCTDHGSQLVTITNRFEQAFVSSLIYNWEGEYFWTALQDLNSTGSFFWLSGDEVMYTHWNRDQPGYSRGGCVALATGSAMGLWEVKNCTSFRARYICRQSLGTPVTPELPGPDPTPSLTGSCPQGWASDTKLRYCYKVFSSERLQDKKSWVQAQGACQELGAQLLSLASYEEEHFVANMLNKIFGESEPEIHEQHWFWIGLNRRDPRGGQSWRWSDGVGFSYHNFDRSRHDDDDIRGCAVLDLASLQWVAMQCDTQLDWICKIPRGTDVREPDDSPQGRREWLRFQEAEYKFFEHHSTWAQAQRICTWFQAELTSVHSQAELDFLSHNLQKFSRAQEQHWWIGLHTSESDGRFRWTDGSIINFISWAPGKPRPVGKDKKCVYMTASREDWGDQRCLTALPYICKRSNVTKETQPPDLPTTALGGCPSDWIQFLNKCFQVQGQEPQSRVKWSEAQFSCEQQEAQLVTITNPLEQAFITASLPNVTFDLWIGLHASQRDFQWVEQEPLMYANWAPGEPSGPSPAPSGNKPTSCAVVLHSPSAHFTGRWDDRSCTEETHGFICQKGTDPSLSPSPAALPPAPGTELSYLNGTFRLLQKPLRWHDALLLCESRNASLAYVPDPYTQAFLTQAARGLRTPLWIGLAGEEGSRRYSWVSEEPLNYVGWQDGEPQQPGGCTYVDVDGAWRTTSCDTKLQGAVCGVSSGPPPPRRISYHGSCPQGLADSAWIPFREHCYSFHMELLLGHKEARQRCQRAGGAVLSILDEMENVFVWEHLQSYEGQSRGAWLGMNFNPKGGTLVWQDNTAVNYSNWGPPGLGPSMLSHNSCYWIQSNSGLWRPGACTNITMGVVCKLPRAEQSSFSPSALPENPAALVVVLMAVLLLLALLTAALILYRRRQSIERGAFEGARYSRSSSSPTEATEKNILVSDMEMNEQQE
modifications: full-length
With B8 the “Ratio of expression Cond. CDLs/Cond. Ghosts” value was 7% and the “Ratio of expression Cond Ghosts/Ghosts” value was 100%.

B9: P18859 (protein, UniProt P18859 1-108, looked up)
chain: MILQRLFRFSSVIRSAVSVHLRRNIGVTAVAFNKELDPIQKLFVDKIREYKSKRQTSGGPVDASSEYQQELERELFKLKQMFGNADMNTFPTFKFEDPKFEVIEKPQA
modifications: full-length
With B9 the “Ratio of expression Cond. CDLs/Cond. Ghosts” value was 7% and the “Ratio of expression Cond Ghosts/Ghosts” value was 100%.

B10: Q01518 (protein, UniProt Q01518 1-475, looked up)
chain: MADMQNLVERLERAVGRLEAVSHTSDMHRGYADSPSKAGAAPYVQAFDSLLAGPVAEYLKISKEIGGDVQKHAEMVHTGLKLERALLVTASQCQQPAENKLSDLLAPISEQIKEVITFREKNRGSKLFNHLSAVSESIQALGWVAMAPKPGPYVKEMNDAAMFYTNRVLKEYKDVDKKHVDWVKAYLSIWTELQAYIKEFHTTGLAWSKTGPVAKELSGLPSGPSAGSCPPPPPPCPPPPPVSTISCSYESASRSSLFAQINQGESITHALKHVSDDMKTHKNPALKAQSGPVRSGPKPFSAPKPQTSPSPKRATKKEPAVLELEGKKWRVENQENVSNLVIEDTELKQVAYIYKCVNTTLQIKGKINSITVDNCKKLGLVFDDVVGIVEIINSKDVKVQVMGKVPTISINKTDGCHAYLSKNSLDCEIVSAKSSEMNVLIPTEGGDFNEFPVPEQFKTLWNGQKLVTTVTEIAG
modifications: full-length
For B10, the “Ratio of expression Cond. CDLs/Cond. Ghosts” value was 6% and the “Ratio of expression Cond Ghosts/Ghosts” value was 100%.
